The target of assay [1] is T1, human histamine H3 receptor (Homo sapiens, UniProt Q9Y5N1). As to the kind of experiment: cell-based.
Assay [2] concerns the target T1, human histamine H3 receptor. Kind of assay: CRE-SPAP gene transcription in forskolin-stimulated CHO-H3-SPAP cells. The note with it: Log KD values.
Assay [3] has the same target. As to the kind of experiment: 3H-cAMP accumulation in forskolin-stimulated CHO-H3-SPAP cells. The format is cell-based. Set-up: secondarily transfected with the full length human histamine H3 receptor; host or cells: CHO-K1 cells with CRE-SPAP reporter (clonal line CHO-H3-SPAP). The note with it: 5 hours incubation with ligand, n = 4. The method, then: Cells were grown to confluence in 24-well plates. The media was removed and the cells pre-labelled with ^3H-adenine by incubation with 2 μCi/ml ^3H-adenine in serum-free media (0.5 ml per well) for 3 hours. The ^3H-adenine was then removed and the cells washed by the addition then removal of 1 ml serum-free media. […] Forskolin (final concentration of 10 μM) was then added to all but the basal wells and the plates incubated for 30 minutes. The reaction was terminated by the addition of 50 μl concentrated HCl per well and the plates were then frozen. Later, the plates were thawed and ^3H-cAMP separated from other ^3H-nucleotides by sequential Dowex and alumina column chromatography, as previously described.
When the intrinsic efficacy of the antagonist ligands was examined, the antagonists were incubated for 5 hours at 37°C in order to maximise the chance of detecting any changes in ^3H-cAMP accumulation.
Response=Emax×[A]/IC50+[A]

The chains behind the UniProt entries cited, without tags or fusion partners. Where a name states a change or a piece, a line headed by the entry shows the natural chain unless it says otherwise.
UniProt Q9Y5N1: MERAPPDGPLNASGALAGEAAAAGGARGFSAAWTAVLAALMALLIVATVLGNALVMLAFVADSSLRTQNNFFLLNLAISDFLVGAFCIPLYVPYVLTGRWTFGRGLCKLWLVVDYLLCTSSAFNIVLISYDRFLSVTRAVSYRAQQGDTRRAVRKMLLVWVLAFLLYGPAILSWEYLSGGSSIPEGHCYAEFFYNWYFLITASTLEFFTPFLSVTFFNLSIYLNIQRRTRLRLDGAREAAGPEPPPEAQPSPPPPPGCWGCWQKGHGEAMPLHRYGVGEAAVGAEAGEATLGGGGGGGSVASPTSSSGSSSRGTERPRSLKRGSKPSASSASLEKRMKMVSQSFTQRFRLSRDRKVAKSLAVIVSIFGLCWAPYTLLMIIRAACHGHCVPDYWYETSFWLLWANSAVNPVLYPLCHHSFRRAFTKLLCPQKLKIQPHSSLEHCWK

pKd: −log10 of the molar value.

For orientation: pKd means the negative decadic logarithm of the Kd, by convention in mol/L. High values mean a small Kd, low ones a large Kd.

Consider `CN1CCC[C@@H]1CCO[C@](C)(c1ccccc1)c1ccc(Cl)cc1` [clemastine], for which the negative logarithm of the Kd (pKd) in assay [1] was 5.79; in assay [2] (agonist N-α-methylhistamine), 5.69; in assay [2] (agonist R-α-methylhistamine), 5.79; in assay [2] (agonist S-α-methylhistamine), 5.74; in assay [2] (agonist VUF 8430), 5.26; in assay [2] (agonist histamine), 5.73. Also, the negative-log Kd (pKd) in assay [2] (agonist imetit) is 5.69; in assay [2] (agonist immethridine) it was 5.50; in assay [2] (agonist impentamine (first component of the response)), 5.73; in assay [2] (agonist proxyfan), 5.60. Besides, the “intrinsic activity response in 3H-cAMP accumulation” value in assay [3] was “No responses”.

Source of the values: paper PMC2430196, “Antagonist affinity measurements at the Gi-coupled human histamine H3 receptor expressed in CHO cells” (BMC Pharmacology, 2008).
